{"source": "patent US4481193A", "about": "(SmithKline Beckman Corporation, priority 1984, dated 1984)", "assay": "general procedure: Boc solid-phase peptide synthesis; benzhydrylamine (BHA) resin, Boc-Gly-resin 1.19 mmol/g", "settings": "whole synthesis", "note": "Some peptides are written in HELM: one residue between dots, names in brackets for other building blocks, links after the first $.", "data": [{"substance": "PEPTIDE1{[Pmp].[D-Tyr(Et)].F.V.N.C.R.G.[am]}$PEPTIDE1,PEPTIDE1,1:R3-6:R3$$$V2.0", "values": [{"measurement": "crude yield", "result": 40, "unit": "%"}]}]}
